Data source: PubChem BioAssay AID1259405 (NCATS, 2018)
In all, the deposit lists about 50,000 reagents; below is a random part of them. About 4,000 of all reagents (8%) were called active. 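Mouse siRNA library applied to hamster cells; one well for each siRNA.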 The numbers tell different reagents against one gene apart. Reagent sequences are not shown.

Aim: 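Mouse-designed siRNAs used to find CHO productivity engineering targets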 (primary screen)
Cell system: Chinese hamster CHO-K1 ovary cells with stable secreted eGFP expression
Reagent: single siRNA against mouse genes, 0.8 pmol siRNA per well (2 µl of 400 nM stock)
Duration: 3 days
Read-out: 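Percent of the per-plate non-targeting control median for intracellular GFP per well by laser scanning cytometry and for cell viability by ATP luminescence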
Reading the numbers: GFP, % of control: higher = more GFP per well, higher productivity; viability (ATP), % of control: higher = more viable cells (more ATP)
Rule for the call: 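a knock-down is called active if GFP reaches 120% or more of non-targeting control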

What did the screen give for Lmx1a (GeneID 110648) #1?
GFP, % of control: 40.4; viability (ATP), % of control: 59; Call: inactive

How did the screen score Lmx1a (GeneID 110648) #2?
GFP, % of control: 101; viability (ATP), % of control: 102; Call: inactive

How did the screen score Lmx1a (GeneID 110648) #3?
GFP, % of control: 91; viability (ATP), % of control: 92.1; Call: inactive

With Map2k3os (GeneID 24082) #1, how do the results read?
GFP, % of control: 44.3; viability (ATP), % of control: 60.8; Call: inactive

What did the screen give for Map2k3os (GeneID 24082) #2?
GFP, % of control: 93.5; viability (ATP), % of control: 101; Call: inactive

How did the screen score Map2k3os (GeneID 24082) #3?
GFP, % of control: 141; viability (ATP), % of control: 67.8; Call: active

What did the screen give for Or5t18 (GeneID 257913) #1?
GFP, % of control: 77.6; viability (ATP), % of control: 49.6; Call: inactive

What did the screen give for Or5t18 (GeneID 257913) #2?
GFP, % of control: 66.7; viability (ATP), % of control: 85.3; Call: inactive

With Or5t18 (GeneID 257913) #3, what does the deposit list?
GFP, % of control: 59.9; viability (ATP), % of control: 82.2; Call: inactive

Entries above whose target name begins with O or o:
Or5t18 (GeneID 257913) #1 — GFP, % of control = 77.6; viability (ATP), % of control = 49.6; Call = inactive
Or5t18 (GeneID 257913) #2 — GFP, % of control = 66.7; viability (ATP), % of control = 85.3; Call = inactive
Or5t18 (GeneID 257913) #3 — GFP, % of control = 59.9; viability (ATP), % of control = 82.2; Call = inactive

The list goes on:
How did the screen score Mbd3l1 (GeneID 73503) #1?
GFP, % of control: 46; viability (ATP), % of control: 37.1; Call: inactive

Which result is listed for Mbd3l1 (GeneID 73503) #2?
GFP, % of control: 61.4; viability (ATP), % of control: 74.2; Call: inactive

With Mbd3l1 (GeneID 73503) #3, what was measured?
GFP, % of control: 55.4; viability (ATP), % of control: 60.5; Call: inactive

How did the screen score Mms19 (GeneID 72199) #1?
GFP, % of control: 83.3; viability (ATP), % of control: 102; Call: inactive

What is on record for Mms19 (GeneID 72199) #2?
GFP, % of control: 96.3; viability (ATP), % of control: 49.1; Call: inactive

For Mms19 (GeneID 72199) #3, what was measured?
GFP, % of control: 64.4; viability (ATP), % of control: 94.4; Call: inactive

With Pcdh17 (GeneID 219228) #1, what does the deposit list?
GFP, % of control: 26.8; viability (ATP), % of control: 63.8; Call: inactive

With Pcdh17 (GeneID 219228) #2, how do the results read?
GFP, % of control: 102; viability (ATP), % of control: 85.6; Call: inactive
